Source: paper PMC2583047
No constants are given. Whether binding was seen depends on the method and setting. Binding seen in cells or lysates may run through a third protein. Some entries that bind do so weakly or less than the wild type.

By UniProt entry, the sequences of proteins in these tests, tags left out. Where a name states a change or a piece, a line headed by the entry shows the natural chain unless it says otherwise.
UniProt P40337: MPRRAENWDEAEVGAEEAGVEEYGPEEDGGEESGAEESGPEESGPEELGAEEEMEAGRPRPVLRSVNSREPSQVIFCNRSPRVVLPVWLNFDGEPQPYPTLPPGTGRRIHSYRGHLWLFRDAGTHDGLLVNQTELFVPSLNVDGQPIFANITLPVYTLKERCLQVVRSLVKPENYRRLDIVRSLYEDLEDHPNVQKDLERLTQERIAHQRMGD
UniProt P62869: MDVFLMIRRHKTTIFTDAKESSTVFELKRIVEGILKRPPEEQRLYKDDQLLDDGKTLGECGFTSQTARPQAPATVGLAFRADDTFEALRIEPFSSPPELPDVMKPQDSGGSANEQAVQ
UniProt Q9D4H8: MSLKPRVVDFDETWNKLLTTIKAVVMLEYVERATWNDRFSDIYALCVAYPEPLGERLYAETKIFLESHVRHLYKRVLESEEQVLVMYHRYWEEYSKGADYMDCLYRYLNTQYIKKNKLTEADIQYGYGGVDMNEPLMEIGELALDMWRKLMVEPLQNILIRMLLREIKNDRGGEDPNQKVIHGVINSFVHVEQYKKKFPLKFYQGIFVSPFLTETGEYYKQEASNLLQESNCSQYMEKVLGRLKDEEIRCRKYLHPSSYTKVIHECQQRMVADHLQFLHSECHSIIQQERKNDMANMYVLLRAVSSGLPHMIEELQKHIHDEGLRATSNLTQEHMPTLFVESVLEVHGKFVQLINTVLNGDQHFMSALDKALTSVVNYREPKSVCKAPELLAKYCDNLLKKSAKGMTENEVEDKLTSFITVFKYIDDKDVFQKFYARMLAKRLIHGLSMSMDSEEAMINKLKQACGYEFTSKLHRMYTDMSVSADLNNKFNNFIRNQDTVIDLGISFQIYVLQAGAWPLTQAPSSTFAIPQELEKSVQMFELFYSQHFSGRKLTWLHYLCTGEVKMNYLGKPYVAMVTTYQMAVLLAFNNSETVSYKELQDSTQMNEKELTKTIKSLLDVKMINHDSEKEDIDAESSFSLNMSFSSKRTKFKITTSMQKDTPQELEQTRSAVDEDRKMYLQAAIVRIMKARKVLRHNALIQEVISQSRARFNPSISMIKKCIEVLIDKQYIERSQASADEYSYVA

Key:
Assay in all cases: co-IP; anti-HA immunoprecipitation (Profound Mammalian HA Tag IP/Co IP Kit) of HA-pVHL from M-PER lysates of stably transfected Vhl-null murine ES cells; endogenous murine VBC members detected by immunoblot
[1] = target: L188V (Type 2C) mutant HA-tagged human pVHL (in Vhl-null murine ES cells) (human) (UniProt P40337)
[2] = target: R167Q (Type 2B) mutant HA-tagged human pVHL (in Vhl-null murine ES cells) (human) (UniProt P40337)
[3] = target: R200W (Chuvash polycythemia) mutant HA-tagged human pVHL (in Vhl-null murine ES cells) (human) (UniProt P40337)
[4] = target: Y112H (Type 2A) mutant HA-tagged human pVHL (in Vhl-null murine ES cells) (human) (UniProt P40337)
[5] = target: wild-type HA-tagged human pVHL (in Vhl-null murine ES cells) (human) (UniProt P40337)

Measured: binding

murine Elongin B (endogenous in ES cells) (from UniProt P62869 1-118)
binds: all assays above

murine Cul2 (endogenous in ES cells) (from UniProt Q9D4H8 1-745)
binds: all assays above
